From publication PMC3813506 (2013)
These are yes or no findings as the source states them, for the method shown.

Target: T1, Nupr1 (recombinant), O60356
T1 chain: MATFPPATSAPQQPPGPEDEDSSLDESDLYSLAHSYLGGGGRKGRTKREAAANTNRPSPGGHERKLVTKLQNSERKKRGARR
Experiment: ITC; heat of dilution: the protein injected into buffer only; 25°C, 10 mM acetate buffer pH 4.5; both purified
Conditions: remark: other sources report otherwise

B1: Nupr1 (recombinant), O60356 1-82 (protein)
chain: T1 chain
binding: no binding (tested: 40 µM in the syringe)
